# Results: the supplement of paper PMC10849652
# Protein sequences, listed by entry. Tags and fused reporters are not part of them. Lines headed by an entry give the natural chain unless they say otherwise; changes in a name come on top.
# UniProt Q93083: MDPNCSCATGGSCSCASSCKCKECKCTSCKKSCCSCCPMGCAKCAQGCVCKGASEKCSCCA
# UniProt O00159, whole entry, looked up: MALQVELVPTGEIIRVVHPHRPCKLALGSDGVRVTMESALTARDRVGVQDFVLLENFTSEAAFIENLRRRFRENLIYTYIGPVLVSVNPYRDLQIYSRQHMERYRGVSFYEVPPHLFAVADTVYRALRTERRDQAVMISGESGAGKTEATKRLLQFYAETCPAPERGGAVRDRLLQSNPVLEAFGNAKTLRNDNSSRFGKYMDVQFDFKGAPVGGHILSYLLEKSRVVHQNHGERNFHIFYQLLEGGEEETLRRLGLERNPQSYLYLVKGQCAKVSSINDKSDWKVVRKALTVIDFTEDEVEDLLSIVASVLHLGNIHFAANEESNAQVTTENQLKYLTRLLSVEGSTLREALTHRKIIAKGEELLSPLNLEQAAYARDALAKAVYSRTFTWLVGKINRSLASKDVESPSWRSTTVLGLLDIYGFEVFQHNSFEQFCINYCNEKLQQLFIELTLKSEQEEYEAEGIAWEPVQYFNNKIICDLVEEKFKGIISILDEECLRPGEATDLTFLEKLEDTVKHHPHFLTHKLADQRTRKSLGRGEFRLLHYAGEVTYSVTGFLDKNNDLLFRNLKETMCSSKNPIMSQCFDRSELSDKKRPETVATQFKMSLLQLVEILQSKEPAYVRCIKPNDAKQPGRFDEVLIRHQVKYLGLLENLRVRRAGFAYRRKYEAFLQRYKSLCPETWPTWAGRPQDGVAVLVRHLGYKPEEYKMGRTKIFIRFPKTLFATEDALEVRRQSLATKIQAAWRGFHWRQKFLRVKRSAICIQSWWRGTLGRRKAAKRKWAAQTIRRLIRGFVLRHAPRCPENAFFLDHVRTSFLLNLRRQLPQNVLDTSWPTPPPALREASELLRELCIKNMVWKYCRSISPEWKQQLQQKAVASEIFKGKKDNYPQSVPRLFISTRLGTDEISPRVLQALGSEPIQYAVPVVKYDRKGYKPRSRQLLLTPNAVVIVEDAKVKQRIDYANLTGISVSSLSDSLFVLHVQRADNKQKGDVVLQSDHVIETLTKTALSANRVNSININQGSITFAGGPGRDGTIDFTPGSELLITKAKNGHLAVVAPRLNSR
# UniProt P00414, whole entry, looked up: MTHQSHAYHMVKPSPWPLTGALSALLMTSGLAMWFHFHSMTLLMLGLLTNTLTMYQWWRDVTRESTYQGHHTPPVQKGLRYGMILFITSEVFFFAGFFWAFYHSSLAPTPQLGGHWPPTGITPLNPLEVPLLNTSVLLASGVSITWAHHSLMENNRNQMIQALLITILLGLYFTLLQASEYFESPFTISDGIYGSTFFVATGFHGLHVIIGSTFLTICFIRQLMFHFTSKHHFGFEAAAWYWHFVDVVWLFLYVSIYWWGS
# UniProt O94832: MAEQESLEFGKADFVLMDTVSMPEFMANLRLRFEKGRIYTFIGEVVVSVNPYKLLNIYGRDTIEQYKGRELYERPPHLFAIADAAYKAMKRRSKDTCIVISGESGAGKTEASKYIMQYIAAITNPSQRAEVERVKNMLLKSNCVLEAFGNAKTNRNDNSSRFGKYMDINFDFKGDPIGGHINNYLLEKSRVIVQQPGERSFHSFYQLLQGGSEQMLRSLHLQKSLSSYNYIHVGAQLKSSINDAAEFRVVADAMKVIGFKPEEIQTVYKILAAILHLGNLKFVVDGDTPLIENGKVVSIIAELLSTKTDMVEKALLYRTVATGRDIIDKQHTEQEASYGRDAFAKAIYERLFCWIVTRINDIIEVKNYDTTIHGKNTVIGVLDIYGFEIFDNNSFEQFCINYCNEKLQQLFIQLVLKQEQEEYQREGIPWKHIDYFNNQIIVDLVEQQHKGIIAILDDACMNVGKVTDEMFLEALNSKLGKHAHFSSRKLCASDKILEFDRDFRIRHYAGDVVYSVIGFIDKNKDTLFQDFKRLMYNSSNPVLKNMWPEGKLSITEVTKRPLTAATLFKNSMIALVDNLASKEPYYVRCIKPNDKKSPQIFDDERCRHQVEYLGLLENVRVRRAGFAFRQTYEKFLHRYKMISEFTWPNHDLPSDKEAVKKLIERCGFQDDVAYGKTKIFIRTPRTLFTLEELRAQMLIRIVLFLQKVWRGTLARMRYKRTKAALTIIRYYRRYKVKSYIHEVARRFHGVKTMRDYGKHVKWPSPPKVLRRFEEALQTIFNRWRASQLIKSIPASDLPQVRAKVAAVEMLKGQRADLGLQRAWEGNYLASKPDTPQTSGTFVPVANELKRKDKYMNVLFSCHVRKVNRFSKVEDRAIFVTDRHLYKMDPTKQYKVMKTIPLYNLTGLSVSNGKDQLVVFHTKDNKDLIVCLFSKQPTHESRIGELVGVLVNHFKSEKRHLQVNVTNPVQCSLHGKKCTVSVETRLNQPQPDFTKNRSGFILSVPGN
# UniProt P26038, whole entry, looked up: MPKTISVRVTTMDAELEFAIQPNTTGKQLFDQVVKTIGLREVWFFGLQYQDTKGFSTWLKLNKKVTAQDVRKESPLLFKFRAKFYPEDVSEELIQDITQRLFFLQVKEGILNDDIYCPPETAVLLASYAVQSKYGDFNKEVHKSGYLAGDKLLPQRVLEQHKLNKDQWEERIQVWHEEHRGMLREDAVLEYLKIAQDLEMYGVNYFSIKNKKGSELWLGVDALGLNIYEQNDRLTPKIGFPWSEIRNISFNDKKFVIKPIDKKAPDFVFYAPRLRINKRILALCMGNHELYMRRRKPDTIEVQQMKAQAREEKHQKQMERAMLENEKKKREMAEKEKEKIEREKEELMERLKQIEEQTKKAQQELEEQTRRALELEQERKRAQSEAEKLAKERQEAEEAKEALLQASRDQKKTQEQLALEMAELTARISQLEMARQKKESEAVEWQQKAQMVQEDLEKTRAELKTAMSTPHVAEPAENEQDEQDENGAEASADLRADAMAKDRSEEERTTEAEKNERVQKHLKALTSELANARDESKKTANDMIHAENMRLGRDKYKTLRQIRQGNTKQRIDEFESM
# UniProt Q9BQG0: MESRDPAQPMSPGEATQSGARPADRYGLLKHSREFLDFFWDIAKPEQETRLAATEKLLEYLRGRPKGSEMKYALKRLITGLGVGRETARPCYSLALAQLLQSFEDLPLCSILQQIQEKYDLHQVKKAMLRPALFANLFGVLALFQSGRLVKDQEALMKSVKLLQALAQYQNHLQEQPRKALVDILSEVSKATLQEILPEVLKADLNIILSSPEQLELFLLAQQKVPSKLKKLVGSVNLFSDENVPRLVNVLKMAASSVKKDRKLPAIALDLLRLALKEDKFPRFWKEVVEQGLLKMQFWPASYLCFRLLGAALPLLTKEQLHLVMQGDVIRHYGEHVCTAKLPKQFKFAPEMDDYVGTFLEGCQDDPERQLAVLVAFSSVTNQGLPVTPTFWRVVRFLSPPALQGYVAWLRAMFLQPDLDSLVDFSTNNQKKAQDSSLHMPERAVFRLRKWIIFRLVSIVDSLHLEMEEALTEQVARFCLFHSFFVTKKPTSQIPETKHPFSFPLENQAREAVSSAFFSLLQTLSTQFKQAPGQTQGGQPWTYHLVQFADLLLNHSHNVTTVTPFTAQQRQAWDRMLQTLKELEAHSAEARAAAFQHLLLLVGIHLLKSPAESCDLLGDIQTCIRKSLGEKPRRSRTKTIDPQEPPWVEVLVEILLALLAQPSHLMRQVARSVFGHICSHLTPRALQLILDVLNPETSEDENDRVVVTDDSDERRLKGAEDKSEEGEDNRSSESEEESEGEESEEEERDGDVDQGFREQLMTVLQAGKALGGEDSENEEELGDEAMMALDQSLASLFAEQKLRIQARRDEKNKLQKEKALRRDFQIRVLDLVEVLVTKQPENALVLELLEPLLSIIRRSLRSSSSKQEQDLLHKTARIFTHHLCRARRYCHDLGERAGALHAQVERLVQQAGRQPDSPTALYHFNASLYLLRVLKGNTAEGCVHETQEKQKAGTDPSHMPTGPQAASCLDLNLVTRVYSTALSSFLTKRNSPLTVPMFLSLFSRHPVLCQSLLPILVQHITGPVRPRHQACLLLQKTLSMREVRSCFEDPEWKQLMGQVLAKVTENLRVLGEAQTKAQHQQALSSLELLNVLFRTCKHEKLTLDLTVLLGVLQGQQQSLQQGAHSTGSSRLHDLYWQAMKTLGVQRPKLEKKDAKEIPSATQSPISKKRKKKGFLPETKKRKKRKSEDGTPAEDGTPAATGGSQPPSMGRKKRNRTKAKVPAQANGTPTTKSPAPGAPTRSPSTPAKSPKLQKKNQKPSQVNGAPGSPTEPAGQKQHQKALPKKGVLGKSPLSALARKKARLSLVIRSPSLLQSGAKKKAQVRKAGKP
# UniProt P08590, whole entry, looked up: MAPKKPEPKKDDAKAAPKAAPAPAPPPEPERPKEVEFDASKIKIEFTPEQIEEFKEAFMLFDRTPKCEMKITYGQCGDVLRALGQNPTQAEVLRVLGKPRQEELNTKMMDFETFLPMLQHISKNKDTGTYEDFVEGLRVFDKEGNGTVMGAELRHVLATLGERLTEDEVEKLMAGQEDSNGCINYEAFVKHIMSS
# UniProt P13533, whole entry, looked up: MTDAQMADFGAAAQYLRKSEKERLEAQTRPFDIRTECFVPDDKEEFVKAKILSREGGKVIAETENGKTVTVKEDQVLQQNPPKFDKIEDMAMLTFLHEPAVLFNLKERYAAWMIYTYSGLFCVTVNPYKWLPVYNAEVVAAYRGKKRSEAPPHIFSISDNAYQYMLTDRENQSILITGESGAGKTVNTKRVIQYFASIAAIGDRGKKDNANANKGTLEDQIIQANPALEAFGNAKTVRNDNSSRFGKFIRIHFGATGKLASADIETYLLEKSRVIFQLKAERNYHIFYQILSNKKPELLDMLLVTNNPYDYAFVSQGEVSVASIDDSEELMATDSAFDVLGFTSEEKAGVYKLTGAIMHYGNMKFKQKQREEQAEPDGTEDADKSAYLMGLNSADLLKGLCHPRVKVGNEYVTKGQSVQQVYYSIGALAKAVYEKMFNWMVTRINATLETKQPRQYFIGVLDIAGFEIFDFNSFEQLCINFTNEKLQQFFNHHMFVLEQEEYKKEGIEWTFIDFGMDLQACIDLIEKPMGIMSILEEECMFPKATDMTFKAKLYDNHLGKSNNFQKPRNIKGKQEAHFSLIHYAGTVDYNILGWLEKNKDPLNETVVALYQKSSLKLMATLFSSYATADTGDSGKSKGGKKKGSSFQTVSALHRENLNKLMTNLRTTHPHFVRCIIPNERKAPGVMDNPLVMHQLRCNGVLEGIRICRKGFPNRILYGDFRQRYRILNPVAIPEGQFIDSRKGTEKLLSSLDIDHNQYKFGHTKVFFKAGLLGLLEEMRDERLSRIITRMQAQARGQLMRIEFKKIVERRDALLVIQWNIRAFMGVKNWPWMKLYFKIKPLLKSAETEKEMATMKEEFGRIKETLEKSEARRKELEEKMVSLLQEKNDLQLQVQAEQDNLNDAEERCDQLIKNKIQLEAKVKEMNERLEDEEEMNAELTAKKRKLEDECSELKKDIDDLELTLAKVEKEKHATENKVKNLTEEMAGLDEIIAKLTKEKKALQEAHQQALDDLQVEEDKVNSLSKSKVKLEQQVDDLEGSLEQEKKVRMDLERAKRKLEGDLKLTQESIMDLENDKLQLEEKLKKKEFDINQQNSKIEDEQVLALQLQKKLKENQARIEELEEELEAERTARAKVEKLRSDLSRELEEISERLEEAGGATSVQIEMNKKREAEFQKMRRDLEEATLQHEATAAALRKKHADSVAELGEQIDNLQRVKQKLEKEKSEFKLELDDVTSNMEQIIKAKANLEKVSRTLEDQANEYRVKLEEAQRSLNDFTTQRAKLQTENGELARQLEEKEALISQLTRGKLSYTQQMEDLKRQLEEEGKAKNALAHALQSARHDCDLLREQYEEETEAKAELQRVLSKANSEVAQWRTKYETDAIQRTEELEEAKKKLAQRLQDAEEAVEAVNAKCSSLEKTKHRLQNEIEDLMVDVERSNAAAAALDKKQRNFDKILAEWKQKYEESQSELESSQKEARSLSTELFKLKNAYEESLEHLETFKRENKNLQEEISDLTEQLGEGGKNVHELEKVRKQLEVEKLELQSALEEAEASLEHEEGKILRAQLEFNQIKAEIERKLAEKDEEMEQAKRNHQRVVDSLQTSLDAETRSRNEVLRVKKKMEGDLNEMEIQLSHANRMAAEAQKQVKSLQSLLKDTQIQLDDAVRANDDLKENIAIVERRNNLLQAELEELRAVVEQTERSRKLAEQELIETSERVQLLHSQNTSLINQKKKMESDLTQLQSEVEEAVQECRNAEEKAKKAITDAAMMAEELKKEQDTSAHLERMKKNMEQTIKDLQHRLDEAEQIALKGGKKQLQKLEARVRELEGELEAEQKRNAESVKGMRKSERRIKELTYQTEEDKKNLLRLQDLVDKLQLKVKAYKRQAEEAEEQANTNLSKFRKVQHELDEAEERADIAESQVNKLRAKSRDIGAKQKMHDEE
# The list shows a part of the results.
# Compound: Cc1sc2c(c1C)C(c1ccc(Cl)cc1)=N[C@@H](CC(=O)OC(C)(C)C)c1nnc(C)n1-2
# Test: log2 fold change, soluble protein after heating vs DMSO (PISA); higher = thermal stabilisation; K562 cells, 10 uM, 30 min; active = over 0.2 and 3.5 SD of the protein, either way, in both replicates (recomputed)
# Method in brief: (§1)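 Soluble protein was defined as the supernatant after 21,000xg for 90 min. It came from K562 cells at 2×10^6 cells/mL given 10 μM compound for 30 min, heated in aliquots for 3 min across 48°C-58°C, pooled, and extracted in PBS with 0.5% NP-40 at 4°C, and was quantified by TMTpro 16plex LC-MS/MS with equalised channel sums. Thermal stability against control samples, from duplicates, is reported as log2 fold change.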
row,Target,log2 fold change
1,MT1L (UniProt Q93083),inactive: -0.061
2,MRPS26 (UniProt Q9BYN8),inactive: -0.009
3,MTRES1 (UniProt Q9P0P8),inactive: 0.048
4,MRPL57 (UniProt Q9BQC6),inactive: 0.059
5,MTO1 isoform 6 (UniProt Q9Y2Z2),inactive: 0
6,"MUC1, A0A087WWM1",inactive: -0.007
7,MTSS1 isoform 5 (UniProt O43312),inactive: -0.072

# Compound: c1ccc([C@@H]2C[C@H]2NC2CCNCC2)cc1
# Test: as above
# Method in brief: as §1
row,Target,log2 fold change
1,MTIF3 (UniProt Q9H2K0),inactive: 0
2,MYO1C (UniProt O00159),inactive: -0.103
3,MT-CO3 (UniProt P00414),inactive: -0.178
4,MRPL58 (UniProt Q14197),inactive: -0.047
5,MYO1D (UniProt O94832),inactive: 0.039
6,MSN (UniProt P26038),inactive: -0.028
7,MYBBP1A isoform 2 (UniProt Q9BQG0),inactive: 0.034
8,MTHFD1L (UniProt B7ZM99),inactive: -0.053
9,MRPS23 (UniProt Q9Y3D9),inactive: -0.033
10,MTCH1 (UniProt Q9NZJ7),inactive: -0.057
11,MTOR (UniProt P42345),inactive: -0.028
12,MTHFSD (UniProt Q2M296),inactive: 0.039
13,MYO19 (UniProt Q96H55),inactive: 0.088
14,MTHFD2L (UniProt Q9H903),inactive: -0.058
15,MYH3 (UniProt P11055),inactive: 0.09
16,MYL3 (UniProt P08590),inactive: -0.02
17,MTERF4 (UniProt Q7Z6M4),inactive: 0.04
18,MRPS26 (UniProt Q9BYN8),inactive: 0.013
19,MTO1 isoform 6 (UniProt Q9Y2Z2),inactive: -0.079
20,MYH6 (UniProt P13533),inactive: -0.183
21,"MUC1, A0A087WWM1",inactive: 0.037
